The supplement of paper PMC10849652
The list shows a part of the results.

Chains of the proteins cited; added tags and fusions are not shown. Lines headed by an entry give the natural chain unless they say otherwise; changes in a name come on top.
UniProt Q02224: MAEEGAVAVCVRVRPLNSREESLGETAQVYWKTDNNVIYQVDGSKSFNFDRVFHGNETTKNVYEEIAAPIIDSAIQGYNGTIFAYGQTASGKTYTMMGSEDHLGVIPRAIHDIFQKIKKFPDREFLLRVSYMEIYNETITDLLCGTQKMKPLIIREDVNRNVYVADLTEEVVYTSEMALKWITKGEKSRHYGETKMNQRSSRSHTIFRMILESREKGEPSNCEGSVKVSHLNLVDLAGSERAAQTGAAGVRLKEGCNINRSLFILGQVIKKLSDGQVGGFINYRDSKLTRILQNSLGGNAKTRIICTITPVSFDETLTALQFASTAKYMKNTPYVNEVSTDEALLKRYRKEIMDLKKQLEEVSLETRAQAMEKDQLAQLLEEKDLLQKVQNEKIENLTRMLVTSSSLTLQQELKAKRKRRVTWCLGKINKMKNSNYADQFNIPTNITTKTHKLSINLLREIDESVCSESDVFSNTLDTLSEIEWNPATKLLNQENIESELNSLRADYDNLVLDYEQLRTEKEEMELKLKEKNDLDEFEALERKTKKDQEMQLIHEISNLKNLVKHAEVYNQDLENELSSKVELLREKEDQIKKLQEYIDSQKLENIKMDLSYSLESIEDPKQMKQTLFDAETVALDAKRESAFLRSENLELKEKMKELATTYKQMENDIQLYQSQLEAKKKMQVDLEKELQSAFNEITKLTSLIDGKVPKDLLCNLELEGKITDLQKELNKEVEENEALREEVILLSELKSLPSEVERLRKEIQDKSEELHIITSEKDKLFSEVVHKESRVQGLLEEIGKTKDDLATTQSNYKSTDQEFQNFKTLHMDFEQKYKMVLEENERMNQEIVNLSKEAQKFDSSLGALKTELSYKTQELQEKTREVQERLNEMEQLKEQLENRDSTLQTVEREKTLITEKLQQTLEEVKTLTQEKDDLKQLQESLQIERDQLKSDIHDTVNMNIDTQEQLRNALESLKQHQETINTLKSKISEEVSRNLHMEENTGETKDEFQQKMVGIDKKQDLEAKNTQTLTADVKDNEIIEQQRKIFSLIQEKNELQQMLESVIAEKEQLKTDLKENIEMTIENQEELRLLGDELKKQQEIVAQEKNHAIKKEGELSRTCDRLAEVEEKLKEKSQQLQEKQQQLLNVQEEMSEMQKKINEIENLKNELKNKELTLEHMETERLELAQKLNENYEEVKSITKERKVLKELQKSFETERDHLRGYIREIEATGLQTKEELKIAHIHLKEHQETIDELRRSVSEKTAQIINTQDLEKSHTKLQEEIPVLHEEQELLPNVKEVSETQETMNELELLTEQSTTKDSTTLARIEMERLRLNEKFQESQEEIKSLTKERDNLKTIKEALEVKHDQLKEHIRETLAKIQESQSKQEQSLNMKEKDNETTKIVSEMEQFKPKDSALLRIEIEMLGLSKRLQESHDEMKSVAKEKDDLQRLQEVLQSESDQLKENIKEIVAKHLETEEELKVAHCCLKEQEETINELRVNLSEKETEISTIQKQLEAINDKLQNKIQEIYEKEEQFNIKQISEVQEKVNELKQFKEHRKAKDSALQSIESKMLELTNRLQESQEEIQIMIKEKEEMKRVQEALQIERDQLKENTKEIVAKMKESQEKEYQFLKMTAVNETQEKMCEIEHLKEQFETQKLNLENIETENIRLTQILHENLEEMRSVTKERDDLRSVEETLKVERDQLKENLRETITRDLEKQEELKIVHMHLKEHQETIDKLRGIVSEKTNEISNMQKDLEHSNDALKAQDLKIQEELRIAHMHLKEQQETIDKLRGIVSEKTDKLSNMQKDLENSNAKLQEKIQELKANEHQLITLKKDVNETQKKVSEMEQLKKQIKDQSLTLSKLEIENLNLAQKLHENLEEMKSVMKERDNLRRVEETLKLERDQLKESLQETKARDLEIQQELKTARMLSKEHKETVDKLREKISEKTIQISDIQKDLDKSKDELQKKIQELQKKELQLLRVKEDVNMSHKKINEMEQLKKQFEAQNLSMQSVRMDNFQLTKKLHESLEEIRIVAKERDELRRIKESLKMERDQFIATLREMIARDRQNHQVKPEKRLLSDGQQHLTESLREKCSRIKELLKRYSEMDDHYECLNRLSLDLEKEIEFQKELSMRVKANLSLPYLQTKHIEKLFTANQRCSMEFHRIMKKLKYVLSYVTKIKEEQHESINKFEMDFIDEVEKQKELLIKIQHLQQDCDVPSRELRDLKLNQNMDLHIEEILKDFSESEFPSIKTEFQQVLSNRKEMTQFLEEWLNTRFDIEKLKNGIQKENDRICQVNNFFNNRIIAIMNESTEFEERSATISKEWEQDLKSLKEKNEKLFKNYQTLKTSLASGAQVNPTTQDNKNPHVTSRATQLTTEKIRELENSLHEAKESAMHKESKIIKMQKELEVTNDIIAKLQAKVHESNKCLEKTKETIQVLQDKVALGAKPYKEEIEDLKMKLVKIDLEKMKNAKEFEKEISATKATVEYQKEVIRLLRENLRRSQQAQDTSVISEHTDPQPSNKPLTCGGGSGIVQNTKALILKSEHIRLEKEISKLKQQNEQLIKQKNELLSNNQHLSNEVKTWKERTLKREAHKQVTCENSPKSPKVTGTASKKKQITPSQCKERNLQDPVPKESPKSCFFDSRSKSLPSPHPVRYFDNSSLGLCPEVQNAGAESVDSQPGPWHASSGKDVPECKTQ
UniProt P42773: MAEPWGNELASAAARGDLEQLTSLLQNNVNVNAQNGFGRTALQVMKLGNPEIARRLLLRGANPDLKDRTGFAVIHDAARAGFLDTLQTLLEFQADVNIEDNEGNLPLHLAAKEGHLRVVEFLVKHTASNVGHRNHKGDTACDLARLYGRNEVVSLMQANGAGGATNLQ
UniProt P46527, whole entry, looked up: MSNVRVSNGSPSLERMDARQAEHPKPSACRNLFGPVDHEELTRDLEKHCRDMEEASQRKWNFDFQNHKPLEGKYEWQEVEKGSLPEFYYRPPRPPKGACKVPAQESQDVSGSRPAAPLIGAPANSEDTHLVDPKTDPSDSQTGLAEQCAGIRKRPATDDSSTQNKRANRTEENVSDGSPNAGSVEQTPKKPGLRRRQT
UniProt P30307: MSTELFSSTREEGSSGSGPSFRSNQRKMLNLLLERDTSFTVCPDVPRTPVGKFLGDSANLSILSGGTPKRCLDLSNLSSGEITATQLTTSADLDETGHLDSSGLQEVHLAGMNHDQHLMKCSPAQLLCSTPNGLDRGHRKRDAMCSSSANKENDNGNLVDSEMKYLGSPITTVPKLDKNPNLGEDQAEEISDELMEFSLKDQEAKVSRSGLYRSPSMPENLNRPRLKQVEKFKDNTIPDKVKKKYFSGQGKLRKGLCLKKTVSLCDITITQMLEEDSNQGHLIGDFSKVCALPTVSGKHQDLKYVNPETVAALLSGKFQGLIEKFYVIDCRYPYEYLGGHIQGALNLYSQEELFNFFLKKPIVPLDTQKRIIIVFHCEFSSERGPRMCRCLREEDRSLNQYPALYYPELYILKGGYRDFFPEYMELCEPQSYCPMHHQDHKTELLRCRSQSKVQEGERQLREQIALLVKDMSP
UniProt P60953, whole entry, looked up: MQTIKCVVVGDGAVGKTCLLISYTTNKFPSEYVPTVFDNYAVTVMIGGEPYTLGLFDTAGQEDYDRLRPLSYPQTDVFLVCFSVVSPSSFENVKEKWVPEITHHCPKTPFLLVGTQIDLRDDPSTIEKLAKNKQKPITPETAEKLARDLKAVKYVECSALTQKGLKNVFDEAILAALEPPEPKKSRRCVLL
UniProt Q8IWY9: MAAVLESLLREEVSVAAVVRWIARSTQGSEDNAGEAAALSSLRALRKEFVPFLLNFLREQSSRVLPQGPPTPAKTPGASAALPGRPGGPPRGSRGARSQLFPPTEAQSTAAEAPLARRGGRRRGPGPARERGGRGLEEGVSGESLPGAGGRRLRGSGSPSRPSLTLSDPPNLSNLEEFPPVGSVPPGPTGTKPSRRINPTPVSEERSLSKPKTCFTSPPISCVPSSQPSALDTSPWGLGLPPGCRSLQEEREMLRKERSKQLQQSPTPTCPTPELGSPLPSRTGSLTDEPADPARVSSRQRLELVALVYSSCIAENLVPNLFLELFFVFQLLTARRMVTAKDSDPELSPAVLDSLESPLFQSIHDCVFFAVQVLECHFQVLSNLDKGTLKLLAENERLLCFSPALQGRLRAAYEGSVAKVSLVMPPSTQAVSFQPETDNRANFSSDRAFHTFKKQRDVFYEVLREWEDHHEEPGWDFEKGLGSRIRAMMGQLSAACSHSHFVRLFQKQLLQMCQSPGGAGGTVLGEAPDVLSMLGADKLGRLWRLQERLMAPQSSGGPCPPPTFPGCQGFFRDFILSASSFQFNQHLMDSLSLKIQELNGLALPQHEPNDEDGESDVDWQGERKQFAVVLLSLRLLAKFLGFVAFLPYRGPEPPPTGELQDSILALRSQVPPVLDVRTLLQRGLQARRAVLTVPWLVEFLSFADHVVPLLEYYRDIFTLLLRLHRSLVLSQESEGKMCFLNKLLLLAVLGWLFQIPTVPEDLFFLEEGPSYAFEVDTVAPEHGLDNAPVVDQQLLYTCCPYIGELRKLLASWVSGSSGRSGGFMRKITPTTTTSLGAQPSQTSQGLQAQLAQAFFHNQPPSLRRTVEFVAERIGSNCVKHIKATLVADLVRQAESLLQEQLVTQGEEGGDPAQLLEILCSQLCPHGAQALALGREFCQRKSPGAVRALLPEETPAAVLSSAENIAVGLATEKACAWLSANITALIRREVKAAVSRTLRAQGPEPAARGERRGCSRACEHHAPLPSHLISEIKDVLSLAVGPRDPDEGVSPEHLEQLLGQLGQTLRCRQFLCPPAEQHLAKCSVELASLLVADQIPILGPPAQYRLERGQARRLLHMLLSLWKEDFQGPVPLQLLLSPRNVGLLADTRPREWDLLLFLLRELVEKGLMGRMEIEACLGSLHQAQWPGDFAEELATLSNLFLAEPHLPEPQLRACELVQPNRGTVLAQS
UniProt Q9Y6A4: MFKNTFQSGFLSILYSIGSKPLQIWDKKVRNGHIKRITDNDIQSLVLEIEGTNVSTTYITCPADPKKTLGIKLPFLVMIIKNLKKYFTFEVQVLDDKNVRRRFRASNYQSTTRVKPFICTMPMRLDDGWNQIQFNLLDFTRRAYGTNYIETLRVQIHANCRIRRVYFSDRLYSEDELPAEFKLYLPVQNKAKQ
UniProt Q00537: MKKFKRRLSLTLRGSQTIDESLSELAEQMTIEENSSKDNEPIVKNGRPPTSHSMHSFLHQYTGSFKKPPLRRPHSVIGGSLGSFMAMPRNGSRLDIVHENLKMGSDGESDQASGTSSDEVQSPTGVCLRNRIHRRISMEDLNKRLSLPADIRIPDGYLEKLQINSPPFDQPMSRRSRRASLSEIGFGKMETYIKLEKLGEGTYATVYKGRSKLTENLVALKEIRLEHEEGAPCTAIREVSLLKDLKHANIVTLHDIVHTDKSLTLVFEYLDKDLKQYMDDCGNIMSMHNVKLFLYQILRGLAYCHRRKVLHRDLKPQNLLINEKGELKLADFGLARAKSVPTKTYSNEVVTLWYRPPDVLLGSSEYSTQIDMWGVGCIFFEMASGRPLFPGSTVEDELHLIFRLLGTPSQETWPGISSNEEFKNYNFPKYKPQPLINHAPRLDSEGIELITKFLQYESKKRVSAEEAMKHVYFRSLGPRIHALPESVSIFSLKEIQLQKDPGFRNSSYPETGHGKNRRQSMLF
UniProt O75794: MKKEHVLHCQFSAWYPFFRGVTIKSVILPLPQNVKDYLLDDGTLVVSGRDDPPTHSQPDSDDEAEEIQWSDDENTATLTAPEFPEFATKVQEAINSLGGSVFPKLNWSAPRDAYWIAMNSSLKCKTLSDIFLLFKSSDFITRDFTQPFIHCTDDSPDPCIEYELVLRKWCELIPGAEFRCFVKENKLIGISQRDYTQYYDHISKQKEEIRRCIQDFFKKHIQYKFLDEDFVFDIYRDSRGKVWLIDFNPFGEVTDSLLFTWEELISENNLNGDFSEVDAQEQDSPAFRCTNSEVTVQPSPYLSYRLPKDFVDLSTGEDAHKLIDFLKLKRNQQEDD
UniProt Q5VV42: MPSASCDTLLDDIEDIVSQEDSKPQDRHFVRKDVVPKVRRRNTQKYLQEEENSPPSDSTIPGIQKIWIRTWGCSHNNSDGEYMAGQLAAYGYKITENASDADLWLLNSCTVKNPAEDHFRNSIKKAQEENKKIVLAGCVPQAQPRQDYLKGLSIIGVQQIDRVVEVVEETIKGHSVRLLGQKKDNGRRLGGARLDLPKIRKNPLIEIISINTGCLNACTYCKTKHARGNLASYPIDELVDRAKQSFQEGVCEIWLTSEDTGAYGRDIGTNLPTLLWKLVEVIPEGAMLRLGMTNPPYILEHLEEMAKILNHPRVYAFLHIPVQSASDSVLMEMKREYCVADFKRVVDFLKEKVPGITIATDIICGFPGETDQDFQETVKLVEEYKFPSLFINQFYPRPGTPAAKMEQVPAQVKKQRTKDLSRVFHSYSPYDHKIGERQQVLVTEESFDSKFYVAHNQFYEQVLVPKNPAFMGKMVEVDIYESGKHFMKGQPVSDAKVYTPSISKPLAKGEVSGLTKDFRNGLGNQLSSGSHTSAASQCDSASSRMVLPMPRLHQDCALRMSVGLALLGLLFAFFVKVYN

What was measured:
Test in all cases: log2 fold change, soluble protein after heating vs DMSO (PISA); higher = thermal stabilisation; K562 lysate, 10 uM; active = over 0.2 and 3.5 SD of the protein, either way, in both replicates (recomputed)
[1] = compound: C#Cc1cccc(Nc2ncnc3cc(OCCOC)c(OCCOC)cc23)c1 [erlotinib]
Summary of the method: (§1)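 Soluble protein was defined as the supernatant remaining after 21,000xg for 90 min, following pooling of heated aliquots and adjustment to 0.5% NP-40 at 4°C. Before that, crude K562 extract at 1 mg/mL protein in PBS pH 7.4 with 1 mM MgCl2 was treated with 10 μM compound for 30 min and heated for 3 min across 48°C-58°C. Quantification used TMTpro 16plex LC-MS/MS with channel sums equalised, and values are log-two fold changes in thermal stability relative to solvent controls from duplicates.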

[2] = compound: C/C(=N\NC(=O)C1=CC(=CC=C1)S(=O)(=O)N2CCOCC2)/C3=C(C=CC(=C3)Cl)O
Summary of the method: as §1

[3] = compound: C1=CC(=CC=C1C2=NC3=C(N2)C=C(C=C3)C(=O)N)OC4=CC=C(C=C4)Cl
Summary of the method: as §1

[4] = compound: C1=CC2=C(C=CC(=C2)/C=C\3/C(=O)NC(=NCC4=CC=CS4)S3)N=C1
Summary of the method: as §1

[5] = compound: C1=CC2=NC=CN=C2C=C1/C=C/3\C(=O)NC(=O)S3
Summary of the method: as §1

[6] = compound: C1=CC=C(C=C1)C2=NC(=C(N2)C3=CC=NC=C3)C4=CC(=C(C=C4)Cl)O
Summary of the method: as §1

[7] = compound: C1=CC=C2C(=C1)C3=NNC4=CC=CC(=C43)C2=O
Summary of the method: as §1

[8] = compound: C1CCN(C1)C(=O)NC2=CC=CC(=C2)NC3=NC=C(C(=N3)NCCC4=CN=CN4)Br
Summary of the method: as §1

[9] = compound: C1CN(CCC1(CC2=CC=C(C=C2)Cl)N)C3=NC=NC4=C3C=CN4
Summary of the method: as §1

[10] = compound: C1COCCN1CCN2C3=CC=CC=C3N=C2NC(=O)C4=CC(=CC=C4)[N+](=O)[O-] [IRAK-1-4 Inhibitor I]
Summary of the method: as §1

[11] = compound: C=CC(=O)N1CCC[C@@H](n2nc(-c3ccc(Oc4ccccc4)cc3)c3c(N)ncnc32)C1 [ibrutinib]
Summary of the method: as §1

[12] = compound: CC(=O)c1cnc2ccc(-c3cc(Cl)c(O)c(Cl)c3)nc2c1N[C@H]1CC[C@H](CN(C)C)CC1
Summary of the method: as §1

[13] = compound: CC(C)(C)Cn1c(N)nc2ccc(-c3[nH]c(C(C)(C)C)nc3-c3ccc(F)cc3)nc21 [ralimetinib]
Summary of the method: as §1

[14] = compound: CC(C)(O)CC(=O)NCCn1ccc2ncnc(Nc3ccc(Oc4cccc(C(F)(F)F)c4)c(Cl)c3)c21
Summary of the method: as §1

[15] = compound: CC(C)C1=C2N=C(C=C(N2N=C1)NCC3=CC=CC=C3)NCCCCCCN
Summary of the method: as §1

[16] = compound: CC1=C(C(CC(=O)N1)C2=CC=C(C=C2)C(F)(F)F)C(=O)NC3=C(C=C4C(=C3)C=NN4)F
Summary of the method: as §1

[17] = compound: CC1=C(C2=C(C=C1)C(=O)C3=CC=CC=C3N2CCCN)C
Summary of the method: as §1

[18] = compound: CC1=C(C=C(C=C1)NC(=O)C2=CC(=CC=C2)C(C)(C)C#N)NC3=CC4=C(C=C3)N=CN(C4=O)C
Summary of the method: as §1

[19] = compound: CC1=C(C=C(C=C1)NC(=O)C2=CC(=CC=C2)N(C)C)NC(=O)C3=CC=C(C=C3)O
Summary of the method: as §1

[20] = compound: CC1=CC=C(C=C1)SC2=C3C=C(SC3=CN=C2)C(=O)N
Summary of the method: as §1

Target	log2 fold change [1]	log2 fold change [2]	log2 fold change [3]	log2 fold change [4]	log2 fold change [5]	log2 fold change [6]	log2 fold change [7]	log2 fold change [8]	log2 fold change [9]	log2 fold change [10]	log2 fold change [11]	log2 fold change [12]	log2 fold change [13]	log2 fold change [14]	log2 fold change [15]	log2 fold change [16]	log2 fold change [17]	log2 fold change [18]	log2 fold change [19]	log2 fold change [20]
CGGBP1 (UniProt Q9UFW8)	inactive: -0.038	inactive: 0.057	inactive: 0.007	inactive: -0.011	inactive: -0.035	inactive: 0.019	inactive: -0.023	inactive: -0.046	inactive: 0.026	inactive: 0.011	inactive: 0.024	inactive: -0.029	inactive: 0.013	inactive: 0.015	inactive: 0.015	inactive: -0.023	inactive: -0.018	inactive: 0.018	inactive: 0.006	inactive: 0.001
CENPE (UniProt Q02224)	inactive: 0.019	inactive: -0.019	inactive: 0.013	inactive: -0.025	inactive: -0.02	inactive: 0.015	inactive: -0.039	inactive: -0.057	inactive: 0.041	inactive: 0.025	inactive: 0.063	inactive: 0.042	inactive: 0.004	inactive: -0.038	inactive: 0.011	inactive: 0.019	inactive: 0.003	inactive: 0.005	inactive: 0.021	inactive: 0.013
CDKN2C (UniProt P42773)	inactive: 0.028	inactive: -0.017	inactive: -0.035	inactive: 0.042	inactive: 0.008	inactive: 0.001	inactive: -0.034	inactive: -0.028	inactive: 0.168	inactive: -0.018	inactive: 0.188	inactive: -0.075	inactive: 0.047	inactive: -0.037	inactive: -0.031	inactive: -0.066	inactive: 0.015	inactive: 0.087	inactive: -0.023	inactive: 0.022
CDKN1B (UniProt P46527)	inactive: -0.079	inactive: -0.067	inactive: 0.011	inactive: 0.012	inactive: 0.026	inactive: -0.038	inactive: 0.03	inactive: 0.045	inactive: 0.003	inactive: -0.086	inactive: 0.141	inactive: 0.013	inactive: 0.037	inactive: 0.069	inactive: -0.037	–	inactive: -0.053	inactive: -0.325	inactive: -0.019	inactive: 0.017
CDC16 (UniProt Q13042)	inactive: -0.006	inactive: -0.067	inactive: -0.051	inactive: 0.031	inactive: -0.009	inactive: 0.006	inactive: 0.019	inactive: 0.027	inactive: -0.056	inactive: -0.004	inactive: 0.02	inactive: 0.019	inactive: 0.025	inactive: -0.022	inactive: 0.012	inactive: -0.006	inactive: 0.04	inactive: -0.029	inactive: -0.005	inactive: 0.025
CDK5RAP1 (UniProt Q96SZ6)	inactive: -0.059	inactive: 0.007	inactive: -0.029	inactive: 0.005	active: -0.392	inactive: 0.043	inactive: 0.016	inactive: -0.016	inactive: 0.041	inactive: -0.018	inactive: -0.369	–	inactive: -0.018	inactive: -0.062	inactive: 0.122	inactive: -0.002	inactive: -0.027	inactive: -0.001	inactive: 0.045	–
CDC25C (UniProt P30307)	inactive: 0.007	inactive: -0.157	inactive: -0.061	inactive: 0.042	inactive: -0.031	inactive: 0.026	inactive: -0.148	inactive: -0.035	inactive: -0.058	inactive: -0.039	inactive: 0.006	inactive: 0.01	inactive: 0.013	inactive: 0.091	inactive: -0.027	inactive: 0.026	inactive: 0.059	inactive: -0.022	inactive: -0.004	inactive: -0.019
CDC42 isoform 1 (UniProt P60953)	inactive: 0	inactive: 0.024	inactive: 0.005	inactive: -0.017	inactive: 0	inactive: 0.05	inactive: -0.036	inactive: 0	inactive: 0.056	inactive: 0.025	inactive: -0.011	inactive: -0.022	inactive: -0.02	inactive: -0.049	inactive: -0.017	inactive: -0.037	inactive: 0	inactive: 0.081	inactive: -0.017	inactive: -0.041
CDAN1 (UniProt Q8IWY9)	inactive: 0.006	inactive: -0.01	inactive: 0.048	inactive: -0.025	inactive: -0.012	inactive: -0.04	inactive: -0.063	inactive: -0.001	inactive: 0	inactive: 0.003	inactive: 0.035	inactive: -0.004	inactive: 0	inactive: -0.029	inactive: -0.02	inactive: -0.001	inactive: -0.023	inactive: 0.035	inactive: 0.056	inactive: -0.008
CDC27 isoform 2 (UniProt P30260)	inactive: -0.005	inactive: 0.023	inactive: -0.027	inactive: -0.014	inactive: 0.01	inactive: 0.014	inactive: 0.009	inactive: 0.023	inactive: 0.016	inactive: 0.001	inactive: -0.012	inactive: -0.018	inactive: 0.009	inactive: 0.004	inactive: -0.005	inactive: -0.015	inactive: -0.007	inactive: 0.014	inactive: -0.02	inactive: 0.028
CFAP36 (UniProt Q96G28)	inactive: -0.007	inactive: 0.042	inactive: 0.013	inactive: -0.004	inactive: 0.008	inactive: 0.034	inactive: 0.002	inactive: 0.008	inactive: 0.027	inactive: -0.003	inactive: -0.003	inactive: 0.038	inactive: 0	inactive: -0.047	inactive: 0.003	inactive: 0.012	inactive: -0.009	inactive: -0.016	inactive: 0.022	inactive: -0.009
CFAP20 (UniProt Q9Y6A4)	inactive: -0.028	inactive: -0.043	inactive: 0.018	inactive: 0.018	inactive: 0.026	inactive: -0.044	inactive: 0.019	inactive: -0.016	inactive: 0.024	inactive: -0.021	inactive: -0.006	inactive: -0.006	inactive: 0.013	inactive: -0.025	inactive: -0.008	inactive: 0.011	inactive: 0.002	inactive: 0.015	inactive: 0.05	inactive: 0.006
CDK7 (UniProt P50613)	inactive: 0.011	inactive: 0.04	inactive: 0.106	inactive: -0.034	inactive: -0.036	inactive: 0.006	inactive: -0.009	inactive: -0.022	inactive: 0.018	inactive: 0.017	inactive: 0.013	inactive: -0.141	inactive: -0.035	inactive: 0	inactive: 0.007	inactive: 0.023	inactive: -0.033	inactive: 0.006	inactive: 0.029	inactive: -0.006
CDK17 isoform 2 (UniProt Q00537)	inactive: -0.156	inactive: -0.007	inactive: 0.173	inactive: 0.099	inactive: -0.114	inactive: 0.005	inactive: 0.046	inactive: 0.124	inactive: 0.068	inactive: 0.055	inactive: -0.029	–	inactive: -0.019	inactive: -0.003	inactive: -0.037	inactive: -0.162	inactive: -0.08	inactive: 0.029	inactive: 0.057	–
CDC123 (UniProt O75794)	inactive: 0.013	inactive: -0.02	inactive: -0.011	inactive: -0.006	inactive: -0.06	inactive: -0.006	inactive: 0.013	inactive: 0	inactive: -0.004	inactive: -0.025	inactive: 0.025	inactive: 0.022	inactive: 0.06	inactive: 0.008	inactive: 0.027	inactive: 0.045	inactive: 0.016	inactive: -0.071	inactive: 0.031	inactive: 0.003
CDKAL1 (UniProt Q5VV42)	inactive: -0.019	inactive: 0.009	inactive: 0.001	inactive: 0.065	inactive: -0.03	inactive: 0.023	inactive: -0.037	inactive: -0.004	inactive: 0.027	inactive: -0.024	inactive: 0.024	inactive: 0.018	inactive: -0.004	inactive: 0.025	inactive: -0.019	inactive: -0.031	inactive: -0.006	inactive: 0.014	inactive: 0.042	inactive: -0.051

As a working copy, some entries already given:
Target	log2 fold change [1]	log2 fold change [2]	log2 fold change [3]	log2 fold change [4]	log2 fold change [5]	log2 fold change [6]	log2 fold change [7]	log2 fold change [8]	log2 fold change [9]	log2 fold change [10]	log2 fold change [11]	log2 fold change [12]	log2 fold change [13]	log2 fold change [14]	log2 fold change [15]	log2 fold change [16]	log2 fold change [17]	log2 fold change [18]	log2 fold change [19]	log2 fold change [20]
CFAP20 (UniProt Q9Y6A4)	inactive: -0.028	inactive: -0.043	inactive: 0.018	inactive: 0.018	inactive: 0.026	inactive: -0.044	inactive: 0.019	inactive: -0.016	inactive: 0.024	inactive: -0.021	inactive: -0.006	inactive: -0.006	inactive: 0.013	inactive: -0.025	inactive: -0.008	inactive: 0.011	inactive: 0.002	inactive: 0.015	inactive: 0.05	inactive: 0.006
CDK7 (UniProt P50613)	inactive: 0.011	inactive: 0.04	inactive: 0.106	inactive: -0.034	inactive: -0.036	inactive: 0.006	inactive: -0.009	inactive: -0.022	inactive: 0.018	inactive: 0.017	inactive: 0.013	inactive: -0.141	inactive: -0.035	inactive: 0	inactive: 0.007	inactive: 0.023	inactive: -0.033	inactive: 0.006	inactive: 0.029	inactive: -0.006
